No constants are given. Whether binding was seen depends on the method and setting. In cells and extracts the contact can be indirect. Some binding calls cover weakened binding; strength is not graded here.
Target: SCFPN::CBL1 (UniProt O81445)
Assay: split reporter; BiFC with split CFP (SCFPN/SCFPC) in N. benthamiana leaf epidermal cells, 35S promoter, confocal microscopy 3 to 5 days after infiltration

By UniProt entry, the sequences of proteins in these tests, tags left out.
UniProt O81445: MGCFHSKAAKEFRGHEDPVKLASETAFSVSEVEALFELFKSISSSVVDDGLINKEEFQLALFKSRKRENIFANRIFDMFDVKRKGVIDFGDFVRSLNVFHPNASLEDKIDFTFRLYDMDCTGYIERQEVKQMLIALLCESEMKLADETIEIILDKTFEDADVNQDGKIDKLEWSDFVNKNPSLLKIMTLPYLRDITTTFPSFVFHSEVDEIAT

binding: binds
B1: CIPK24::SCFPC (protein, UniProt Q9LDI3 1-446)
chain: MTKKMRRVGKYEVGRTIGEGTFAKVKFARNTDTGDNVAIKIMAKSTILKNRMVDQIKREISIMKIVRHPNIVRLYEVLASPSKIYIVLEFVTGGELFDRIVHKGRLEESESRKYFQQLVDAVAHCHCKGVYHRDLKPENLLLDTNGNLKVSDFGLSALPQEGVELLRTTCGTPNYVAPEVLSGQGYDGSAADIWSCGVILFVILAGYLPFSETDLPGLYRKINAAEFSCPPWFSAEVKFLIHRILDPNPKTRIQIQGIKKDPWFRLNYVPIRAREEEEVNLDDIRAVFDGIEGSYVAENVERNDEGPLMMNAFEMITLSQGLNLSALFDRRQDFVKRQTRFVSRREPSEIIANIEAVANSMGFKSHTRNFKTRLEGLSSIKAGQLAVVIEIYEVAPSLFMVDVRKAAGETLEYHKFYKKLCSKLENIIWRATEGIPKSEILRTITF
